Measurements reported in publication PMC10290057.
Results are given in words; binding and its absence hold for the method and conditions named. In cells and extracts the contact can be indirect. Some results given as binding are weak or reduced against the parent protein; the word gives no strength. Sequences can lack the tags named with a protein.

The chains behind the UniProt entries cited, without tags or fusion partners.
UniProt P11387: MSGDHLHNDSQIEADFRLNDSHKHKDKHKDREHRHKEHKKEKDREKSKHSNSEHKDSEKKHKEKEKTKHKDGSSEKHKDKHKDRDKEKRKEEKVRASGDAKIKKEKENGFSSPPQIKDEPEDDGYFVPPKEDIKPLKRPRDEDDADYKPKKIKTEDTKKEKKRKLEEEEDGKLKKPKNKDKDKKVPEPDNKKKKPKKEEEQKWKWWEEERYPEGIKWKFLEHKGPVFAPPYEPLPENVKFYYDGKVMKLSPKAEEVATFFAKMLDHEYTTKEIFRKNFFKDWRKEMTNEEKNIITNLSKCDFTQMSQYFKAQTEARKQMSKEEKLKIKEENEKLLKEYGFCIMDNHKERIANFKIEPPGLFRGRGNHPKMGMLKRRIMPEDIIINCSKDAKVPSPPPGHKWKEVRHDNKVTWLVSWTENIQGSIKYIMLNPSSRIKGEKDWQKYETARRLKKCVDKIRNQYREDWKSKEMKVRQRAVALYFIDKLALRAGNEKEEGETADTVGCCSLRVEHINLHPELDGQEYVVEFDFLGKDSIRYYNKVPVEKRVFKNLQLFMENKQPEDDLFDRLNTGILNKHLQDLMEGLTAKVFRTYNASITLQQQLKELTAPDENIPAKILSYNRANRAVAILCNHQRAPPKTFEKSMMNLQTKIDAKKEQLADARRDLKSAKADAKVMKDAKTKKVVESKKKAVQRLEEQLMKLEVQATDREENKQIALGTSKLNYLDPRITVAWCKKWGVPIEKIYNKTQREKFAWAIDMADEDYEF

T1: DCAF13-FLAG (DDB1 and Cullin Associated Factor 13), wild type (human) (UniProt Q9NV06)
T1 sequence: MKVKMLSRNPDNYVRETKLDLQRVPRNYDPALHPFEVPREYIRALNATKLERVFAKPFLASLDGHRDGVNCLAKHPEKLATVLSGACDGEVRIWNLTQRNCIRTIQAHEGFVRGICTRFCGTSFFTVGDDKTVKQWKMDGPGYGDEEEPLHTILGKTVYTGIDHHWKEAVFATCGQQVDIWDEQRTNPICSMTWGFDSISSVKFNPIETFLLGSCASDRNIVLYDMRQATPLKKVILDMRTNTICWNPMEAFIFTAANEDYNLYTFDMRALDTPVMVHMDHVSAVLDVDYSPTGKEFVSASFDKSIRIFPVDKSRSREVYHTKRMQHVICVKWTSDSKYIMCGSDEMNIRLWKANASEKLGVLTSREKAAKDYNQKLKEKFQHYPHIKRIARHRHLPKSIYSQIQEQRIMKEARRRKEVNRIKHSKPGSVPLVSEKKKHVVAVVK

B1: DCAF13-FLAG (DDB1 and Cullin Associated Factor 13), wild type (protein, UniProt Q9NV06 1-445)
chain: T1 sequence

Columns and labels:
[1] = molecular target: T1, DCAF13-FLAG (DDB1 and Cullin Associated Factor 13), wild type (human); assay: co-IP; FLAG-IP (anti-FLAG M2, Protein A/G PLUS-agarose) from benzonase-treated lysates of HCT116 cells transfected with DCAF13-FLAG constructs, CPT (20 µM, 30 min) in presence of BTZ (1 µM); washed with RIPA buffer; immunoblot
[2] = molecular target: N-terminally 6×His-tagged TOP1 (topoisomerase I), full length (human) (UniProt P11387); assay: pull-down; His-tag pull-down from lysates of HCT116 cells expressing 6×His-TOP1 constructs and DCAF13-FLAG; lysate in IP lysis buffer, sonicated, benzonase-treated, then Ni-NTA-agarose overnight at 4 °C in Buffer A (6 M guanidine-HCl, 0.1 M Na2HPO4/NaH2PO4, 10 mM imidazole pH 8.0); immunoblot; cells treated with DMSO or CPT (20 µM, 30 min) ± APH (10 µM), or CPT with BTZ (1 µM)
[3] = molecular target: N-terminally 6×His-tagged TOP1 (topoisomerase I), full length (human) (UniProt P11387); assay: proximity ligation; Duolink PLA in fixed HCT116 cells overexpressing His-TOP1 and DCAF13-FLAG, anti-His and anti-FLAG antibodies; DMSO or CPT (20 µM, 30 min)

Row | Molecule | binding [1] | binding [2] | binding [3]
1 | TOP1, endogenous (co-precipitated with DCAF13-FLAG constructs) (from UniProt P11387 1-765) (enzyme) | binds |  | 
2 | B1 |  | binds | binds
